PubChem BioAssay AID1259308 – NCATS – 2017
Assay: 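Candidate targets for better recombinant protein yield in mammalian cells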 (primary screen). Cells: human HEK293 embryonic kidney cells stably expressing firefly luciferase (HEK-CMV-Luc2-Hygro). Reagents: single siRNA against human genes, 0.8 pmol siRNA per well. Timing: 72 h. Measurement: 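Reporter luminescence and viable-cell signal on separate replicate plates, given as percent of non-targeting control and median/MAD z-scores, plus per-cell luciferase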. Reading the numbers: total luciferase, z-score and total luciferase, % of control: higher = more reporter protein produced. Active means: 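Active when the median/MAD z-score for overall luciferase is greater than 3; a gene was taken forward for validation with new siRNAs if at least two of its three siRNAs passed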. Meaning of the calls: active = raised luciferase; inactive = no rise.
This is one part, drawn at random, of about 59,000 reagents. Of all reagents, about 1,510 (2.6%) got an active call. 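Calls use total luciferase alone and ignore viability, so some active siRNAs may act by altering cell number.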 The numbers tell different reagents against one gene apart. Not all columns of the deposit are shown.

gene symbol | reagent no. | total luciferase, z-score | total luciferase, % of control | activity call
BRDTP1 | 1 | -0.118 | 79.5 | inactive
BRDTP1 | 2 | 0.263 | 87.1 | inactive
BRDTP1 | 3 | -0.4 | 73.9 | inactive
ODAD1 | 1 | -0.488 | 72.2 | inactive
ODAD1 | 2 | 1.71 | 116 | inactive
ODAD1 | 3 | 3.97 | 161 | active
ZNF415 | 1 | 0.817 | 98.1 | inactive
ZNF415 | 2 | 0.385 | 89.5 | inactive
ZNF415 | 3 | -0.131 | 79.3 | inactive
BLOC1S2 | 1 | 1.26 | 107 | inactive
BLOC1S2 | 2 | 0.479 | 91.4 | inactive
BLOC1S2 | 3 | -1.89 | 44.3 | inactive
GLB1L | 1 | -1.2 | 58.1 | inactive
GLB1L | 2 | -0.308 | 75.8 | inactive
GLB1L | 3 | -0.164 | 78.6 | inactive
LRFN3 | 1 | 0.811 | 98 | inactive
LRFN3 | 2 | -0.685 | 68.3 | inactive
LRFN3 | 3 | -0.12 | 79.5 | inactive
MRPS5 | 1 | -0.395 | 74 | inactive
MRPS5 | 2 | 0.257 | 87 | inactive
MRPS5 | 3 | -0.13 | 79.3 | inactive
ZNF10 | 1 | -1.09 | 60.1 | inactive
ZNF10 | 2 | -0.722 | 67.5 | inactive
ZNF10 | 3 | -0.0766 | 80.4 | inactive
ARL2BPP3 | 1 | -0.769 | 66.6 | inactive
ARL2BPP3 | 2 | -0.948 | 63 | inactive
ARL2BPP3 | 3 | 0.393 | 89.7 | inactive
RPL22 | 1 | -0.373 | 74.5 | inactive
RPL22 | 2 | 1.48 | 111 | inactive
RPL22 | 3 | -0.871 | 64.6 | inactive
RCOR3 | 1 | -0.937 | 63.2 | inactive
RCOR3 | 2 | -1.4 | 54 | inactive
RCOR3 | 3 | 2.07 | 123 | inactive
CSN1S1 | 1 | 4.79 | 177 | active
CSN1S1 | 2 | 1.13 | 104 | inactive
CSN1S1 | 3 | 0.825 | 98.3 | inactive
COX6A2 | 1 | -1.33 | 55.3 | inactive
COX6A2 | 2 | -0.432 | 73.3 | inactive
COX6A2 | 3 | -0.474 | 72.5 | inactive
AADACL2 | 1 | -1.1 | 60 | inactive
AADACL2 | 2 | 1.23 | 106 | inactive
AADACL2 | 3 | 0.277 | 87.4 | inactive
TTC5 | 1 | 0.203 | 85.9 | inactive
TTC5 | 2 | 0.514 | 92.1 | inactive
TTC5 | 3 | -0.0583 | 80.7 | inactive
AKAP5 | 1 | 0.957 | 101 | inactive
AKAP5 | 2 | 1.2 | 106 | inactive
AKAP5 | 3 | -0.0162 | 81.6 | inactive
SIRAL1 | 1 | 1.11 | 104 | inactive
SIRAL1 | 2 | 1.21 | 106 | inactive
SIRAL1 | 3 | -0.713 | 67.7 | inactive
AFF1 | 1 | -0.216 | 77.6 | inactive
AFF1 | 2 | 1.69 | 115 | inactive
AFF1 | 3 | -0.659 | 68.8 | inactive
LINGO4 | 1 | 0.972 | 101 | inactive
LINGO4 | 2 | -1.3 | 56.1 | inactive
LINGO4 | 3 | -0.0855 | 80.2 | inactive
RSPO4 | 1 | -0.95 | 63 | inactive
RSPO4 | 2 | 2.5 | 132 | inactive
RSPO4 | 3 | -2.11 | 39.9 | inactive
PRKD2 | 1 | -0.639 | 69.2 | inactive
PRKD2 | 2 | 0.0622 | 83.1 | inactive
PRKD2 | 3 | 0.937 | 101 | inactive
CCDC160 | 1 | -0.434 | 73.2 | inactive
CCDC160 | 2 | 0.273 | 87.3 | inactive
CCDC160 | 3 | -0.442 | 73.1 | inactive
C9orf85 | 1 | -0.023 | 81.4 | inactive
C9orf85 | 2 | 4.32 | 168 | active
C9orf85 | 3 | 0.0827 | 83.5 | inactive
MRPL4 | 1 | -0.774 | 66.5 | inactive
MRPL4 | 2 | -2.24 | 37.4 | inactive
MRPL4 | 3 | 0.438 | 90.6 | inactive
TLCD1 | 1 | 0.277 | 87.4 | inactive
TLCD1 | 2 | -0.805 | 65.9 | inactive
TLCD1 | 3 | 0.23 | 86.5 | inactive

9 entries from above, sorted by “total luciferase, z-score”, high to low:
gene symbol | reagent no. | total luciferase, z-score | total luciferase, % of control | activity call
CSN1S1 | 1 | 4.79 | 177 | active
AADACL2 | 2 | 1.23 | 106 | inactive
CSN1S1 | 2 | 1.13 | 104 | inactive
CSN1S1 | 3 | 0.825 | 98.3 | inactive
AADACL2 | 3 | 0.277 | 87.4 | inactive
COX6A2 | 2 | -0.432 | 73.3 | inactive
COX6A2 | 3 | -0.474 | 72.5 | inactive
AADACL2 | 1 | -1.1 | 60 | inactive
COX6A2 | 1 | -1.33 | 55.3 | inactive
